Taken from: PubChem BioAssay AID1259405 (NCATS, 2018)

- Aim: 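Knock-downs that lift recombinant protein yield in hamster ovary cells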 (primary screen)
- Cells: Chinese hamster CHO-K1 ovary cells with stable secreted eGFP expression
- Reagent: single siRNA against mouse genes, 0.8 pmol siRNA per well (2 µl of 400 nM stock)
- Timing: 3 days
- Read-out: 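Percent of the per-plate non-targeting control median for intracellular GFP per well by laser scanning cytometry and for cell viability by ATP luminescence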
- Direction: GFP, % of control: higher = more GFP per well, higher productivity; viability (ATP), % of control: higher = more viable cells (more ATP)
- Call rule: 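a knock-down is called active if GFP reaches 120% or more of non-targeting control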
Here is an unselected part of about 50,000 reagents tested. About 4,000 of all reagents (8%) count as active. 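Mouse siRNA library applied to hamster cells; one well for each siRNA.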 Entries without a mark were called inactive. The numbers tell different reagents against one gene apart. Reagent sequences are not shown.

| gene | siRNA no. | GFP, % of control | viability (ATP), % of control |
| --- | --- | --- | --- |
| Fam76a | 1 | 114 | 110 |
| Fam76a | 2 | 69.5 | 58.7 |
| Fam76a | 3 | 165 (active) | 155 |
| Smc1a | 1 | 160 (active) | 132 |
| Smc1a | 2 | 76.7 | 99.5 |
| Hes2 | 1 | 84.3 | 66 |
| Hes2 | 2 | 75 | 73.5 |
| Hes2 | 3 | 76.9 | 62.8 |
| Fam98c | 1 | 70.8 | 53.5 |
| Fam98c | 2 | 79.1 | 66.4 |
| Fam98c | 3 | 58 | 49.2 |
| Pou2f3 | 1 | 107 | 134 |
| Pou2f3 | 2 | 86.2 | 90 |
| Pou2f3 | 3 | 63.6 | 73 |
| Dusp6 | 1 | 57.7 | 70.9 |
| Dusp6 | 2 | 75 | 60.4 |
| 9030612E09Rik | 1 | 95.8 | 86.6 |
| 9030612E09Rik | 2 | 97.6 | 83.7 |
| 9030612E09Rik | 3 | 142 (active) | 125 |
| Mcpt2 | 1 | 124 (active) | 135 |
| Mcpt2 | 2 | 93.2 | 102 |
| Mcpt2 | 3 | 118 | 101 |
| Cep68 | 1 | 58.3 | 38.3 |
| Cep68 | 2 | 97.9 | 110 |
| Cep68 | 3 | 90.9 | 122 |
| Cwc22 | 1 | 85.2 | 60.1 |
| Cwc22 | 2 | 82.9 | 67 |
| Cwc22 | 3 | 107 | 53.7 |
| Akr1cl | 1 | 124 (active) | 86.5 |
| Akr1cl | 2 | 54.2 | 61.7 |
| Akr1cl | 3 | 74.2 | 76.4 |
| Itga9 | 1 | 75.4 | 68.1 |
| Itga9 | 2 | 66.1 | 72.8 |
| Prlhr | 1 | 97.9 | 74.6 |
| Prlhr | 2 | 73.3 | 55.9 |
| Prlhr | 3 | 55.4 | 47.9 |
| Adar | 1 | 43.2 | 40.1 |
| Adar | 2 | 52.7 | 89.6 |
| Adar | 3 | 57.6 | 48.4 |
| Grin1 | 1 | 87.6 | 70.2 |
| Grin1 | 2 | 52.8 | 43.9 |
| Grin1 | 3 | 81.2 | 43.9 |
| Gjc1 | 1 | 64.4 | 60.5 |
| Gjc1 | 2 | 138 (active) | 97.9 |
| Gjc1 | 3 | 119 | 101 |
| Phf14 | 1 | 62.8 | 66.4 |
| Phf14 | 2 | 78.5 | 92.1 |
| Phf14 | 3 | 56.3 | 63.8 |

Reformatted: entries from further up
{"gene": "9030612E09Rik", "siRNA no.": 3, "GFP, % of control": "142 (active)", "viability (ATP), % of control": 125}
{"gene": "Mcpt2", "siRNA no.": 1, "GFP, % of control": "124 (active)", "viability (ATP), % of control": 135}
{"gene": "Mcpt2", "siRNA no.": 2, "GFP, % of control": 93.2, "viability (ATP), % of control": 102}
{"gene": "Mcpt2", "siRNA no.": 3, "GFP, % of control": 118, "viability (ATP), % of control": 101}
{"gene": "Cep68", "siRNA no.": 1, "GFP, % of control": 58.3, "viability (ATP), % of control": 38.3}
{"gene": "Cep68", "siRNA no.": 2, "GFP, % of control": 97.9, "viability (ATP), % of control": 110}
{"gene": "Cep68", "siRNA no.": 3, "GFP, % of control": 90.9, "viability (ATP), % of control": 122}
{"gene": "Cwc22", "siRNA no.": 1, "GFP, % of control": 85.2, "viability (ATP), % of control": 60.1}

Further results follow.
| gene | siRNA no. | GFP, % of control | viability (ATP), % of control |
| --- | --- | --- | --- |
| Tac4 | 1 | 64.9 | 77.1 |
| Tac4 | 2 | 80.3 | 84.8 |
| Tac4 | 3 | 118 | 95.2 |
| Chtf8 | 1 | 50.7 | 82.5 |
| Chtf8 | 2 | 74 | 88.1 |
| Chtf8 | 3 | 68.1 | 122 |
| Acsm3 | 1 | 96.3 | 53.4 |
| Acsm3 | 2 | 67.8 | 60.5 |
| Acsm3 | 3 | 82.2 | 86.7 |
| Mgarp | 1 | 67.1 | 99.9 |
| Mgarp | 2 | 34.2 | 46.5 |
| Mgarp | 3 | 99.9 | 111 |
| B3gnt8 | 1 | 149 (active) | 82.8 |
| B3gnt8 | 2 | 64.8 | 81.4 |
| B3gnt8 | 3 | 64.5 | 65.4 |
| Tbrg4 | 1 | 85.1 | 57.8 |
| Tbrg4 | 2 | 120 (active) | 111 |
| Tbrg4 | 3 | 68.9 | 86.8 |
| Hsd17b8 | 1 | 49.2 | 75.8 |
| Hsd17b8 | 2 | 72.2 | 66.6 |
| Hsd17b8 | 3 | 74.9 | 73.8 |
| Mmp23 | 1 | 83.8 | 96 |
| Mmp23 | 2 | 69 | 54.2 |
| Neurod2 | 1 | 83.9 | 96 |
| Neurod2 | 2 | 74.9 | 70.1 |
| Neurod2 | 3 | 115 | 126 |
| Mcm10 | 1 | 84.2 | 78 |
| Mcm10 | 2 | 54.3 | 53.6 |
| Mcm10 | 3 | 51.3 | 62.9 |
| Lsm7 | 1 | 133 (active) | 88.8 |
| Lsm7 | 2 | 49.1 | 52.2 |
| Lsm7 | 3 | 81.3 | 80.2 |
| Rad9b | 1 | 46 | 47.1 |
| Rad9b | 2 | 48.5 | 61.6 |
| Rad9b | 3 | 71.6 | 97.7 |
| Rad9b | 4 | 55.3 | 29.9 |
| Rad9b | 5 | 63.6 | 45.6 |
| Rad9b | 6 | 60.9 | 87.2 |
